Measured values from the supplement of paper PMC10849652.
Some of the results follow.

Amino acid sequences for entries named in this document (tags omitted). A change or cut given only in a name is not applied to a line headed by its entry.
UniProt P49590: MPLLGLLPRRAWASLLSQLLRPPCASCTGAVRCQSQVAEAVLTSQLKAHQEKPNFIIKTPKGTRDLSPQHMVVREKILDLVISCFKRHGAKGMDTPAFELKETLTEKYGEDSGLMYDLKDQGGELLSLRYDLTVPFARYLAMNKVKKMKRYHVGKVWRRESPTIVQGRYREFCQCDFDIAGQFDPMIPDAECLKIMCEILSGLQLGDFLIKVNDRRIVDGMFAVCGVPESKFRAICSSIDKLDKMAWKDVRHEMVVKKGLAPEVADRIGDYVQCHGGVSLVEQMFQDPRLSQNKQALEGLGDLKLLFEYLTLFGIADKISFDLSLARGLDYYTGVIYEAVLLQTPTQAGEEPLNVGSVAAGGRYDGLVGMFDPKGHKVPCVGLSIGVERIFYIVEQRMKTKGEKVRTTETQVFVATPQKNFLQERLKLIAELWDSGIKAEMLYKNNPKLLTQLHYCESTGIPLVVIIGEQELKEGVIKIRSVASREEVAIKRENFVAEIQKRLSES
UniProt P04921: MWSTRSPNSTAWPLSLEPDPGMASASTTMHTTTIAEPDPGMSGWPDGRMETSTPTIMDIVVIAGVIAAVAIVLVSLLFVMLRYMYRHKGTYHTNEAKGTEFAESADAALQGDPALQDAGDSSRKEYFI
UniProt P53701: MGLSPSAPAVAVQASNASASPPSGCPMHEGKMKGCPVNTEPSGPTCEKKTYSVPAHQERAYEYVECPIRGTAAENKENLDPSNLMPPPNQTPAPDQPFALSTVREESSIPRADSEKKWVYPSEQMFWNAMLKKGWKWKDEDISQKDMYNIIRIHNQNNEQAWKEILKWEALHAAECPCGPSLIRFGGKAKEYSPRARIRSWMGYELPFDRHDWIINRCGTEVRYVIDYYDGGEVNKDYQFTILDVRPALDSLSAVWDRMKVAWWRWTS
UniProt Q9BQS7: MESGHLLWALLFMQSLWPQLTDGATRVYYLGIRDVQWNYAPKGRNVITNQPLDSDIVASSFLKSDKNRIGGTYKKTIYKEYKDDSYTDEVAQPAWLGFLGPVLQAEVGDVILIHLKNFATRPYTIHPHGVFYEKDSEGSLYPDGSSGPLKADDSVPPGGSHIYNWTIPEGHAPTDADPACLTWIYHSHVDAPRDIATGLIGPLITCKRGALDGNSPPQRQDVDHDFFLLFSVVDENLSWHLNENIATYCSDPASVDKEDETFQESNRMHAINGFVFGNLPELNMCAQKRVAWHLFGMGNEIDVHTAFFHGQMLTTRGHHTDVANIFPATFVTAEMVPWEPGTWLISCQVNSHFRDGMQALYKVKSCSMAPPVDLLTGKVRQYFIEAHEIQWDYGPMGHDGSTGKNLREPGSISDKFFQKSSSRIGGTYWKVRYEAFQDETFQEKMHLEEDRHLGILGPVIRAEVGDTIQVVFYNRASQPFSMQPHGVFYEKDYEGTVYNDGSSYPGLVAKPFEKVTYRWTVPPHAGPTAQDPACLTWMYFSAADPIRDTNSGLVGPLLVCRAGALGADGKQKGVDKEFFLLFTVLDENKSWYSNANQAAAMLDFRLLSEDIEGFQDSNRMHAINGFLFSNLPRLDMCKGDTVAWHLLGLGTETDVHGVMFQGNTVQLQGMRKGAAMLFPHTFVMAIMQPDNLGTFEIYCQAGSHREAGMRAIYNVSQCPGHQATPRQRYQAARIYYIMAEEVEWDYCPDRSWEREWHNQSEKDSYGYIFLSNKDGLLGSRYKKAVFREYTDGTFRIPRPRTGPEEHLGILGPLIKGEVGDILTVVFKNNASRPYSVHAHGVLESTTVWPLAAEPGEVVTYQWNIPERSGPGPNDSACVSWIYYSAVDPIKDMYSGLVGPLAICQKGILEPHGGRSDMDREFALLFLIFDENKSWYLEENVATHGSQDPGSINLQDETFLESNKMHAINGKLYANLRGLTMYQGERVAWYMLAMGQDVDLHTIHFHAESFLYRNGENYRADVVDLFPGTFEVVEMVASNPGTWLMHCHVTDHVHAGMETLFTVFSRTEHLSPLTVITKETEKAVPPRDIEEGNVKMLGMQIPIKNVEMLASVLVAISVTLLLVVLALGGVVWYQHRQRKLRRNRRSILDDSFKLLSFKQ
UniProt Q96CS2: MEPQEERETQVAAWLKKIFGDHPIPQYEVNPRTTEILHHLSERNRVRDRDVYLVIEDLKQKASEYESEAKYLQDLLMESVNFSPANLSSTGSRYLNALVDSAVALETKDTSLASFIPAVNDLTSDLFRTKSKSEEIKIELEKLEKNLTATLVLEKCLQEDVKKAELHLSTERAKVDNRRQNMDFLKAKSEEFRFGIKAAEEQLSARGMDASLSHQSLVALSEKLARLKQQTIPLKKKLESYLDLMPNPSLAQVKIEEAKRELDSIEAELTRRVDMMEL
UniProt P48637: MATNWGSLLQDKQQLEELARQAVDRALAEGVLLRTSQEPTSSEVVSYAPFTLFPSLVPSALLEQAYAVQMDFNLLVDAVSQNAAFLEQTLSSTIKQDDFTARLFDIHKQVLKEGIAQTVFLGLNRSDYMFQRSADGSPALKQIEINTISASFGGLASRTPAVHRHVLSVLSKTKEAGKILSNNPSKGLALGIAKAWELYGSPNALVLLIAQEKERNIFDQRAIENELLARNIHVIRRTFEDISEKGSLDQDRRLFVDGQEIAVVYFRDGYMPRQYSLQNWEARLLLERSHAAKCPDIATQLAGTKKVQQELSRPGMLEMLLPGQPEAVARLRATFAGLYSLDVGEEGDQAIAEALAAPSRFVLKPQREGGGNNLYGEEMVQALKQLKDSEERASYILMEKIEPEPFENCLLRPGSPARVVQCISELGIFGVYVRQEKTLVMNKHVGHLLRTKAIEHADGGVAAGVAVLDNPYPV
UniProt Q16836: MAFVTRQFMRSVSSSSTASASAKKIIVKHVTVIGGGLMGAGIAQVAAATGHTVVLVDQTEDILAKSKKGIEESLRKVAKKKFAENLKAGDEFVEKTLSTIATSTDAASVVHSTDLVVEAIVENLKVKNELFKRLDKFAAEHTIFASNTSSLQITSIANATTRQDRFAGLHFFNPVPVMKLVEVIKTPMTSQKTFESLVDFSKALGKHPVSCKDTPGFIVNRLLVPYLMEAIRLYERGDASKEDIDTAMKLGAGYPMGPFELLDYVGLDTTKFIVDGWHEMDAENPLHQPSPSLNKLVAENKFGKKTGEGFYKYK
UniProt O00178: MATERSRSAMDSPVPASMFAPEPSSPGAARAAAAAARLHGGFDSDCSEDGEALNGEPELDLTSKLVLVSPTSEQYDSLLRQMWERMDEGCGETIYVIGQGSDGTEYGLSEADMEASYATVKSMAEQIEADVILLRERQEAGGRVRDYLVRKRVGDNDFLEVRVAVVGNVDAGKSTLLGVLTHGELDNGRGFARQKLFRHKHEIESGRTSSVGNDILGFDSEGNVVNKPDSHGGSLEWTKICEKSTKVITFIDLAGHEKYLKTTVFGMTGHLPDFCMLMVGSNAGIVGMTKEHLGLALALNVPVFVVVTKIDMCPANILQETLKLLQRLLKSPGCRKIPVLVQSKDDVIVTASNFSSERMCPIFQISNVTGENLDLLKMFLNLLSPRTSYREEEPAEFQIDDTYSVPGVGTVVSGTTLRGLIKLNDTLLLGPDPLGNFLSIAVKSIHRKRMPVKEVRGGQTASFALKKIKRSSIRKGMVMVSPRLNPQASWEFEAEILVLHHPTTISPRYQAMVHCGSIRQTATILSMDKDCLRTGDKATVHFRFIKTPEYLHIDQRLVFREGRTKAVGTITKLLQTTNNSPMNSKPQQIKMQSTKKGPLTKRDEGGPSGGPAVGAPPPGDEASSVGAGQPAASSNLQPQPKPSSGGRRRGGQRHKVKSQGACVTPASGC
UniProt Q5T447: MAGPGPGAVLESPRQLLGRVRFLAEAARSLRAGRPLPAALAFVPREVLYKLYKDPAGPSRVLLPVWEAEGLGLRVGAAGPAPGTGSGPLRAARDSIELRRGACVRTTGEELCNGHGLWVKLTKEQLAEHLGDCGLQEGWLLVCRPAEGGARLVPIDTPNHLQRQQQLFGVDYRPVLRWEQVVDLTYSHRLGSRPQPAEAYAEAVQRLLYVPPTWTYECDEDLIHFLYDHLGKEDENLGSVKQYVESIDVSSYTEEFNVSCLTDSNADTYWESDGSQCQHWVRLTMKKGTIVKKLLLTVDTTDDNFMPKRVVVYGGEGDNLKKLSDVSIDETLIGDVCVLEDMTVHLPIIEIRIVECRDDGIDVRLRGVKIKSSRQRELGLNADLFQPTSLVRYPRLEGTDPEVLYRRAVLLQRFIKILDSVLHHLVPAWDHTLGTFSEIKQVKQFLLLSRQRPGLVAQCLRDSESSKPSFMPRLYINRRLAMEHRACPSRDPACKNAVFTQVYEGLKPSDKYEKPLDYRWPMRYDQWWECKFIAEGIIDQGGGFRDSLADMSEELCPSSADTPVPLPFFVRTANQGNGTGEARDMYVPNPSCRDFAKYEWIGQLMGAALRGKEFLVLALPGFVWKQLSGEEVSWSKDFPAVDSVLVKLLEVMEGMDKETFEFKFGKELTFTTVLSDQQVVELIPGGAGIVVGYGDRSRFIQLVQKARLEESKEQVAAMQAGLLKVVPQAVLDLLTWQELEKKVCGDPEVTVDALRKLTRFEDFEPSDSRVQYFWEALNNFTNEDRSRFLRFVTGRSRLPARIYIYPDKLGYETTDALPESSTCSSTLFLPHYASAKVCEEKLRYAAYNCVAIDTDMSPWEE
UniProt Q969Y2: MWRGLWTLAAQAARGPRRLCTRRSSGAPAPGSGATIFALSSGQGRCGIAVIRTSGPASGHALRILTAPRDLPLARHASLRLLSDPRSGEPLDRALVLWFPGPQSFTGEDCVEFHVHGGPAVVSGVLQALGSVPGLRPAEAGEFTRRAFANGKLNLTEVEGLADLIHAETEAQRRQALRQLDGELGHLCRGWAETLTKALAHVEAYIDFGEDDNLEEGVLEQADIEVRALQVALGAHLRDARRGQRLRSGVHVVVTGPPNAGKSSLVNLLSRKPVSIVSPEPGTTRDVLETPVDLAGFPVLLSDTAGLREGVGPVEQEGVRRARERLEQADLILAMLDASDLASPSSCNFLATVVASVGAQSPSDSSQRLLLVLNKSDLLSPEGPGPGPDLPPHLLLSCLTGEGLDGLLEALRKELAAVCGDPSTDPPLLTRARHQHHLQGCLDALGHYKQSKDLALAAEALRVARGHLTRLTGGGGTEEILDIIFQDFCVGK
UniProt Q9Y450, whole entry, looked up: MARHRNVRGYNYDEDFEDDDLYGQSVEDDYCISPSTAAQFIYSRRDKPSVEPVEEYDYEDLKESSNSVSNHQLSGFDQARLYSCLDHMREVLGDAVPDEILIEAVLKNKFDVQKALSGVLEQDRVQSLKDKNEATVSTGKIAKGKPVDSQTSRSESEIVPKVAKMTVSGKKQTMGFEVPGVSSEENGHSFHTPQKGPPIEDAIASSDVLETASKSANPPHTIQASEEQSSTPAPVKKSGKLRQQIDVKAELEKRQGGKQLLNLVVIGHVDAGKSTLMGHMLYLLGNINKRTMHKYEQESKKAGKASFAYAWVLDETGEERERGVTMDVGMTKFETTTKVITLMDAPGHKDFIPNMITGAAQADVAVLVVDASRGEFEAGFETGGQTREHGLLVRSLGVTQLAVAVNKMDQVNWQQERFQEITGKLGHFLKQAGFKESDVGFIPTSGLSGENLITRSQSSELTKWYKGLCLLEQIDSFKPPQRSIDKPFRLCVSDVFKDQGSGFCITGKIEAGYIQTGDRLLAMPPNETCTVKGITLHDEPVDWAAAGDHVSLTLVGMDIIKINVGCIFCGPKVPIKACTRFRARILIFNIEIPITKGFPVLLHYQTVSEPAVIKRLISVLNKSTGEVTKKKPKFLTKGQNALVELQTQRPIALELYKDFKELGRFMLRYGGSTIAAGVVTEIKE
UniProt Q9BSH5: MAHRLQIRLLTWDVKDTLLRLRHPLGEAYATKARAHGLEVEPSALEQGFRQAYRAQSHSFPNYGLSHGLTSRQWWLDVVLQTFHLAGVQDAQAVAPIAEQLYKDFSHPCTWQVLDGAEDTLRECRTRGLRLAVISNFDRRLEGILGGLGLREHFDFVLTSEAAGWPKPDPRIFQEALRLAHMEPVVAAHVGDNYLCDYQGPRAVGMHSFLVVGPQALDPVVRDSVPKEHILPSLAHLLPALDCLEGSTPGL
UniProt P13984, whole entry, looked up: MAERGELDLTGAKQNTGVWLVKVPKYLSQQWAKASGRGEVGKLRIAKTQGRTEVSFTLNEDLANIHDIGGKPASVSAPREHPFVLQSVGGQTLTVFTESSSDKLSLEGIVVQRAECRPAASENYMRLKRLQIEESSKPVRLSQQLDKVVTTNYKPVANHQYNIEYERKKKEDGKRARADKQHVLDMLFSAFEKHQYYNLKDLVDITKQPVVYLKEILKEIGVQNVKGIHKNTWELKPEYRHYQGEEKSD
UniProt P16403, whole entry, looked up: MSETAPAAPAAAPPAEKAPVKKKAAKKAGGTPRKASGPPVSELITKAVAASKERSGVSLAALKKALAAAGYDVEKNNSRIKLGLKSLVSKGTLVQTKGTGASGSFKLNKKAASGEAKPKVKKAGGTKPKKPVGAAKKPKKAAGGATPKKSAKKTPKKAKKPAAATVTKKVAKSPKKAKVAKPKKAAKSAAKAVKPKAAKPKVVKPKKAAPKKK

Tests used:
Assay in all cases: log2 fold change, soluble protein after heating vs DMSO (PISA); higher = thermal stabilisation; K562 cells, 10 uM, 30 min; active = over 0.2 and 3.5 SD of the protein, either way, in both replicates (recomputed)
saracatinib = compound: CN1CCN(CCOc2cc(OC3CCOCC3)c3c(Nc4c(Cl)ccc5c4OCO5)ncnc3c2)CC1 [saracatinib]
How it was run: (§1)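 K562 cells at 2×10^6 cells/mL were exposed to 10 μM compound for 30 min, then aliquots were heated for 3 min across 48°C-58°C, pooled, and extracted in PBS containing 0.5% NP-40 at 4°C. The supernatant after 21,000xg for 90 min was taken as soluble protein and measured by TMTpro 16plex LC-MS/MS with channel sums equalised. Thermal stability is reported relative to control samples, with values from duplicates. Fold changes are given on a log2 scale.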

sotrastaurin = compound: CN1CCN(c2nc(C3=C(c4c[nH]c5ccccc45)C(=O)NC3=O)c3ccccc3n2)CC1 [sotrastaurin]
How it was run: as §1

alvocidib = compound: CN1CC[C@H](c2c(O)cc(O)c3c(=O)cc(-c4ccccc4Cl)oc23)[C@H](O)C1 [alvocidib]
How it was run: as §1

Tubastatin A = compound: CN1CCc2c(c3ccccc3n2Cc2ccc(C(=O)NO)cc2)C1 [Tubastatin A]
How it was run: as §1

[1] = compound: CNC(=O)C1=CC=CC=C1NC2=NC(=NC=C2Cl)NC3=C(C=C(C=C3)N4CCOCC4)OC
How it was run: as §1

defactinib = compound: CNC(=O)c1ccc(Nc2ncc(C(F)(F)F)c(NCc3nccnc3N(C)S(C)(=O)=O)n2)cc1 [defactinib]
How it was run: as §1

rucaparib = compound: CNCc1ccc(-c2[nH]c3cc(F)cc4c3c2CCNC4=O)cc1 [rucaparib]
How it was run: as §1

[2] = compound: CNc1nc(-c2ccc3c(N)n[nH]c3c2)cc(N2C[C@@H](C(=O)NC3CCCCC3)CC[C@H]2C)n1
How it was run: as §1

encorafenib = compound: COC(=O)N[C@@H](C)CNc1nccc(-c2cn(C(C)C)nc2-c2cc(Cl)cc(NS(C)(=O)=O)c2F)n1 [encorafenib]
How it was run: as §1

[3] = compound: COC(=O)[C@H](CCSC)NC(=O)C1=C(C=C(C=C1)NC[C@H](CS)N)C2=CC=CC=C2
How it was run: as §1

[4] = compound: COC1=CC=C(C=C1)CN2C=CC3=C2C=C(C=C3)C(=O)NO
How it was run: as §1

filanesib = compound: CON(C)C(=O)N1N=C(c2cc(F)ccc2F)S[C@@]1(CCCN)c1ccccc1 [filanesib]
How it was run: as §1

zotarolimus = compound: CO[C@H]1C[C@@H]2CC[C@@H](C)[C@@](O)(O2)C(=O)C(=O)N2CCCC[C@H]2C(=O)O[C@H]([C@H](C)C[C@@H]2CC[C@H](n3cnnn3)[C@H](OC)C2)CC(=O)[C@H](C)/C=C(\C)[C@@H](O)[C@@H](OC)C(=O)[C@H](C)C[C@H](C)/C=C/C=C/C=C/1C [zotarolimus]
How it was run: as §1

idasanutlin = compound: COc1cc(C(=O)O)ccc1NC(=O)[C@@H]1N[C@@H](CC(C)(C)C)[C@](C#N)(c2ccc(Cl)cc2F)[C@H]1c1cccc(Cl)c1F [idasanutlin]
How it was run: as §1

alisertib = compound: COc1cc(Nc2ncc3c(n2)-c2ccc(Cl)cc2C(c2c(F)cccc2OC)=NC3)ccc1C(=O)O [alisertib]
How it was run: as §1

[5] = compound: COc1cc2nc(-c3cc(F)ccc3O)nc(N[C@@H]3CNC[C@H]3C(C)(C)O)c2cc1OC
How it was run: as §1

gefitinib = compound: COc1cc2ncnc(Nc3ccc(F)c(Cl)c3)c2cc1OCCCN1CCOCC1 [gefitinib]
How it was run: as §1

[6] = compound: COc1cccc2cc(-c3nc([C@H]4CC[C@H](C(=O)O)CC4)n4ncnc(N)c34)[nH]c12
How it was run: as §1

lapatinib = compound: CS(=O)(=O)CCNCc1ccc(-c2ccc3ncnc(Nc4ccc(OCc5cccc(F)c5)c(Cl)c4)c3c2)o1 [lapatinib]
How it was run: as §1

pictilisib = compound: CS(=O)(=O)N1CCN(Cc2cc3nc(-c4cccc5[nH]ncc45)nc(N4CCOCC4)c3s2)CC1 [pictilisib]
How it was run: as §1

Measured: log2 fold change

HARS2 (UniProt P49590)
inactive: saracatinib 0.056 | sotrastaurin 0.023 | alvocidib 0.002 | Tubastatin A -0.004 | [1] 0.017 | defactinib 0 | rucaparib -0.012 | [2] -0.027 | encorafenib -0.042 | [3] 0.013 | [4] -0.003 | filanesib 0.008 | zotarolimus -0.005 | idasanutlin 0.008 | alisertib -0.019 | [5] 0.015 | gefitinib 0.018 | [6] 0.046 | lapatinib -0.016 | pictilisib 0.029

GYPC (UniProt P04921)
inactive: saracatinib -0.178 | sotrastaurin 0.046 | alvocidib -0.063 | Tubastatin A 0.255 | [1] -0.091 | defactinib -0.049 | rucaparib -0.005 | [2] 0.109 | encorafenib -0.118 | [3] 0.039 | [4] 0.058 | filanesib 0.036 | zotarolimus 0.209 | idasanutlin 0.169 | alisertib -0.056 | [5] 0.21 | gefitinib 0.069 | [6] 0.102 | lapatinib -0.01 | pictilisib -0.019

H1-5 (UniProt P16401)
inactive: saracatinib -0.134 | sotrastaurin -0.06 | alvocidib 0.301 | Tubastatin A 0.03 | [1] 0.041 | defactinib 0.291 | rucaparib 0.317 | [2] 0.133 | encorafenib 0.122 | [3] -0.007 | [4] -0.087 | filanesib 0.449 | zotarolimus -0.029 | idasanutlin 0.186 | alisertib -0.163 | [5] -0.096 | gefitinib 0.001 | [6] -0.34 | lapatinib 0.034 | pictilisib -0.132

HCCS (UniProt P53701)
inactive: saracatinib 0.039 | sotrastaurin 0.051 | alvocidib 0 | Tubastatin A -0.038 | [1] -0.02 | defactinib 0.011 | rucaparib -0.003 | [2] -0.062 | encorafenib -0.049 | [3] 0.049 | [4] -0.057 | filanesib -0.014 | zotarolimus -0.047 | idasanutlin 0.025 | alisertib -0.008 | [5] -0.014 | gefitinib 0.016 | [6] 0.11 | lapatinib 0.009 | pictilisib 0.001

HEPH isoform 3 (UniProt Q9BQS7)
inactive: saracatinib -0.07 | sotrastaurin -0.048 | alvocidib 0.048 | Tubastatin A 0.065 | [1] -0.042 | defactinib -0.008 | rucaparib 0.022 | [2] -0.038 | encorafenib 0.08 | [3] -0.026 | [4] -0.002 | filanesib 0.073 | zotarolimus 0.03 | idasanutlin 0.054 | alisertib -0.026 | [5] -0.052 | gefitinib 0.028 | [6] 0.006 | lapatinib 0.058 | pictilisib 0.051

HAUS1 (UniProt Q96CS2)
inactive: saracatinib 0 | sotrastaurin -0.017 | alvocidib -0.011 | Tubastatin A 0.166 | [1] -0.072 | defactinib 0.112 | rucaparib 0.07 | [2] 0.038 | encorafenib -0.1 | [3] 0.098 | [4] 0.118 | filanesib 0.017 | zotarolimus 0.104 | idasanutlin -0.032 | alisertib -0.032 | [5] -0.042 | gefitinib 0.111 | [6] -0.033 | lapatinib 0.103 | pictilisib -0.015

Reprinted at random: 2 records from the list
H1-5 (UniProt P16401)
inactive: saracatinib -0.134 | sotrastaurin -0.06 | alvocidib 0.301 | Tubastatin A 0.03 | [1] 0.041 | defactinib 0.291 | rucaparib 0.317 | [2] 0.133 | encorafenib 0.122 | [3] -0.007 | [4] -0.087 | filanesib 0.449 | zotarolimus -0.029 | idasanutlin 0.186 | alisertib -0.163 | [5] -0.096 | gefitinib 0.001 | [6] -0.34 | lapatinib 0.034 | pictilisib -0.132

HAUS1 (UniProt Q96CS2)
inactive: saracatinib 0 | sotrastaurin -0.017 | alvocidib -0.011 | Tubastatin A 0.166 | [1] -0.072 | defactinib 0.112 | rucaparib 0.07 | [2] 0.038 | encorafenib -0.1 | [3] 0.098 | [4] 0.118 | filanesib 0.017 | zotarolimus 0.104 | idasanutlin -0.032 | alisertib -0.032 | [5] -0.042 | gefitinib 0.111 | [6] -0.033 | lapatinib 0.103 | pictilisib -0.015

Later entries:

GSS (UniProt P48637)
inactive: saracatinib 0 | sotrastaurin 0.035 | alvocidib -0.006 | Tubastatin A -0.037 | [1] -0.047 | defactinib -0.019 | rucaparib -0.036 | [2] -0.059 | encorafenib -0.023 | [3] 0.02 | [4] -0.039 | filanesib -0.059 | zotarolimus -0.002 | idasanutlin -0.017 | alisertib -0.072 | [5] 0.032 | gefitinib 0 | [6] 0.053 | lapatinib -0.008 | pictilisib 0.021

HADH isoform 2 (UniProt Q16836)
inactive: saracatinib -0.02 | sotrastaurin 0.031 | alvocidib 0.036 | Tubastatin A -0.012 | [1] -0.014 | defactinib -0.027 | rucaparib -0.065 | [2] 0.183 | encorafenib -0.014 | [3] 0.02 | [4] -0.027 | filanesib -0.077 | zotarolimus 0.017 | idasanutlin -0.034 | alisertib -0.064 | [5] -0.017 | gefitinib 0.078 | [6] 0.007 | lapatinib 0.023 | pictilisib -0.041

GTPBP1 (UniProt O00178)
inactive: saracatinib 0.006 | sotrastaurin 0.059 | alvocidib -0.014 | Tubastatin A 0.012 | [1] -0.056 | defactinib 0.008 | rucaparib 0.046 | [2] 0.059 | encorafenib 0.057 | [3] -0.042 | [4] -0.03 | filanesib 0.037 | zotarolimus 0.027 | idasanutlin -0.02 | alisertib -0.041 | [5] 0.053 | gefitinib 0.004 | [6] 0.031 | lapatinib -0.004 | pictilisib -0.068

HECTD3 (UniProt Q5T447)
inactive: saracatinib -0.101 | sotrastaurin -0.026 | alvocidib 0.026 | Tubastatin A 0.02 | [1] -0.02 | defactinib 0.023 | rucaparib 0.077 | [2] -0.011 | encorafenib 0.069 | [3] 0 | [4] 0.082 | filanesib 0.064 | zotarolimus 0.046 | idasanutlin 0.01 | alisertib 0.039 | [5] 0.035 | gefitinib 0.041 | [6] -0.137 | lapatinib -0.027

GTPBP3 isoform 2 (UniProt Q969Y2)
inactive: saracatinib 0.016 | sotrastaurin -0.01 | alvocidib -0.016 | Tubastatin A -0.066 | [1] -0.034 | defactinib -0.028 | rucaparib -0.001 | [2] -0.075 | encorafenib -0.061 | [3] 0.029 | [4] -0.016 | filanesib -0.061 | zotarolimus 0.007 | idasanutlin 0.002 | alisertib -0.068 | [5] 0.004 | gefitinib 0.037 | [6] 0.094 | lapatinib -0.026 | pictilisib 0.046

HELQ (UniProt Q8TDG4)
inactive: saracatinib 0.115 | sotrastaurin 0.039 | alvocidib -0.124 | Tubastatin A -0.043 | [1] 0.005 | defactinib 0.025 | rucaparib -0.009 | [2] -0.155 | encorafenib -0.021 | [3] 0.047 | [4] -0.024 | filanesib 0 | zotarolimus -0.021 | idasanutlin 0.061 | alisertib 0.067 | [5] 0.125 | gefitinib -0.122 | [6] -0.056 | lapatinib -0.04 | pictilisib -0.019

HBS1L isoform 2 (UniProt Q9Y450)
inactive: saracatinib 0.058 | sotrastaurin -0.006 | alvocidib -0.093 | Tubastatin A 0.024 | [1] -0.026 | defactinib 0 | rucaparib -0.047 | [2] 0.085 | encorafenib 0.03 | [3] 0.089 | [4] 0.179 | filanesib -0.047 | zotarolimus 0.096 | idasanutlin -0.015 | alisertib -0.08 | [5] -0.329 | gefitinib -0.168 | [6] 0.009 | lapatinib -0.046 | pictilisib -0.049

HDHD3 (UniProt Q9BSH5)
inactive: saracatinib 0.013 | sotrastaurin 0.048 | alvocidib 0.018 | Tubastatin A 0.062 | [1] -0.024 | defactinib -0.018 | rucaparib -0.003 | [2] -0.105 | encorafenib -0.03 | [3] 0.008 | [4] -0.021 | filanesib -0.03 | zotarolimus -0.021 | idasanutlin 0.019 | alisertib -0.085 | [5] -0.022 | gefitinib 0.022 | [6] 0.048 | lapatinib -0.048 | pictilisib 0.056

GTF2F2 (UniProt P13984)
inactive: saracatinib -0.014 | sotrastaurin -0.026 | alvocidib -0.073 | Tubastatin A 0.002 | [1] -0.01 | defactinib -0.069 | rucaparib -0.044 | [2] -0.022 | encorafenib 0.006 | [3] -0.005 | [4] -0.012 | filanesib -0.032 | zotarolimus 0.019 | idasanutlin -0.028 | alisertib -0.004 | [5] 0.038 | gefitinib 0.031 | [6] 0.002 | lapatinib -0.028 | pictilisib 0.027

H1-2 (UniProt P16403)
inactive: saracatinib -0.236 | sotrastaurin -0.087 | alvocidib 0.36 | Tubastatin A 0.039 | [1] 0.023 | defactinib 0.323 | rucaparib 0.371 | [2] 0.124 | encorafenib 0.144 | [3] 0.009 | [4] -0.012 | filanesib 0.453 | zotarolimus 0.01 | idasanutlin 0.146 | alisertib -0.077 | [5] 0.003 | gefitinib -0.048 | [6] -0.323 | lapatinib 0.151 | pictilisib -0.101
